Laboratory results from the supplement of paper PMC12823440, “Inhibitors supercharge kinase turnover through native proteolytic circuits” (Nature, 2025).
Counter-ions that a name gives are not always drawn. This is one part of the list. Hit calls seldom repeat between salt and free forms of one compound.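 In K562 cells expressing nanoluciferase-fused kinases, luminescence was recorded at 4 h intervals between 2 and 18 h, normalized as percent of control with DMSO at 100% and a positive control at 0%. A significant (2 sigma) signal drop marks a time point as decreased. The authors' rule for a hit is not shown and takes in more than the number of time points.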

Protein sequences, listed by entry. Tags and fused reporters are not part of them. Lines headed by an entry give the natural chain unless they say otherwise; changes in a name come on top.
UniProt P11362, whole entry, looked up: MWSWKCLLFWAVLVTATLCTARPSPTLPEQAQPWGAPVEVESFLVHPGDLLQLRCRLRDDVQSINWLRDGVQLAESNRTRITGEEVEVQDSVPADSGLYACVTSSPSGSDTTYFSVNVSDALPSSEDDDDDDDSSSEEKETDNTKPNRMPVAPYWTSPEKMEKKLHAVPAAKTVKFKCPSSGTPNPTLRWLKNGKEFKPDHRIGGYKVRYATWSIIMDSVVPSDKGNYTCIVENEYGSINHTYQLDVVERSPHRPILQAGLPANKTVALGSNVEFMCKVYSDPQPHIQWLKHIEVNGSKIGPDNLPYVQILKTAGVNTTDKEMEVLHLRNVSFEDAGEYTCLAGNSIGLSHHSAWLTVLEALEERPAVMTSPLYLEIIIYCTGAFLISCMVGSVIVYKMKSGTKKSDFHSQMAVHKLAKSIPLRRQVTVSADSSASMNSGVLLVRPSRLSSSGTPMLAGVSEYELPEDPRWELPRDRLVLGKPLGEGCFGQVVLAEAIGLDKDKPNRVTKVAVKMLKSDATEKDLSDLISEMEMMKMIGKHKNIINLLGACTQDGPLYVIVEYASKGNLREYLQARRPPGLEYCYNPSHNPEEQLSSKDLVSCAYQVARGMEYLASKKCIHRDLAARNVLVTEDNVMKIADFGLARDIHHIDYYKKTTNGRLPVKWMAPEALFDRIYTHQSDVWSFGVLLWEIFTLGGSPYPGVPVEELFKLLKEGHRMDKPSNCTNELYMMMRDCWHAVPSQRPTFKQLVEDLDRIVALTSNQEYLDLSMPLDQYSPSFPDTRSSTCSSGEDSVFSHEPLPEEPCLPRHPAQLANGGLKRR
UniProt P21802, whole entry, looked up: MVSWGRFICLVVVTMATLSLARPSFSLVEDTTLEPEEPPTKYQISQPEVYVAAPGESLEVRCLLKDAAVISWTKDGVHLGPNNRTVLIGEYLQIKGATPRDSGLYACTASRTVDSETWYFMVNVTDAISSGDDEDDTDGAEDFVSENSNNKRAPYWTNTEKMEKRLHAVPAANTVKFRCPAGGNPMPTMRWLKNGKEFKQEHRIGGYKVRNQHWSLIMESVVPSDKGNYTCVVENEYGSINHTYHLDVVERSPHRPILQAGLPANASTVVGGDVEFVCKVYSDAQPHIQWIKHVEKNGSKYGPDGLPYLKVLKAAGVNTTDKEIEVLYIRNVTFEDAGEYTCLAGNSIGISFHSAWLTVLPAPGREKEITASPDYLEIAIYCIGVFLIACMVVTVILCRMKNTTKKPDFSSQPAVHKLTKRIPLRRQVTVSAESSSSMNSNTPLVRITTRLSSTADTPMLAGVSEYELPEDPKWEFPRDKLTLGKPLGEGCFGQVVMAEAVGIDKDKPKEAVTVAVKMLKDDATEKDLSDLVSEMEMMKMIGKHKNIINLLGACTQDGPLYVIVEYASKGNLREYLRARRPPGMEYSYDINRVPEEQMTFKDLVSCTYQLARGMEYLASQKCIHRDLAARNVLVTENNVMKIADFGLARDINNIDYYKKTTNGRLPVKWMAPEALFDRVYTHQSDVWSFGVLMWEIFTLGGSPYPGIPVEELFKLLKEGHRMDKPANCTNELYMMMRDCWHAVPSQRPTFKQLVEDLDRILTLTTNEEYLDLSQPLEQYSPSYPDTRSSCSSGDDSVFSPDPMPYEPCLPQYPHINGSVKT
UniProt P22607, whole entry, looked up: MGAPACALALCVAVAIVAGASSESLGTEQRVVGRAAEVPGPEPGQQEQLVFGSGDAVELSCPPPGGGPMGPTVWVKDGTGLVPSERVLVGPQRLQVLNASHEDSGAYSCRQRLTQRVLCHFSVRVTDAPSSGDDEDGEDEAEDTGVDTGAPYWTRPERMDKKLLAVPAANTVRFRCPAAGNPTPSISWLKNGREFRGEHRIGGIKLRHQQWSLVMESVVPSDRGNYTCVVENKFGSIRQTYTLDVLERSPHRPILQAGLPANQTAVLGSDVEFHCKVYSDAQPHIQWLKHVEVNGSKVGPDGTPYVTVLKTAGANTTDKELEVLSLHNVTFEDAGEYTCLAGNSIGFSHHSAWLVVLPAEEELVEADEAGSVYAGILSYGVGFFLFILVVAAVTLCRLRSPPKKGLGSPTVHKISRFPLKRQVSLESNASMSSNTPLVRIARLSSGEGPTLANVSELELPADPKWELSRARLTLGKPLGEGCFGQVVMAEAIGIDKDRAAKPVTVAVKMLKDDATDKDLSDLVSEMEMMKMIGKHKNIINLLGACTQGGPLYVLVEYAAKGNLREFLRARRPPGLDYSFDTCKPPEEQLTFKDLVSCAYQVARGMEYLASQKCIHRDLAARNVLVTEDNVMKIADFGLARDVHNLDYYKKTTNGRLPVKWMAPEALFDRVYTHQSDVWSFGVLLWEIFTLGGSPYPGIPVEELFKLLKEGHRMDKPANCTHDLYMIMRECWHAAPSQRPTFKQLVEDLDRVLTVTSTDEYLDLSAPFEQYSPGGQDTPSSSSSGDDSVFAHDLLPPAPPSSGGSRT
UniProt P14616: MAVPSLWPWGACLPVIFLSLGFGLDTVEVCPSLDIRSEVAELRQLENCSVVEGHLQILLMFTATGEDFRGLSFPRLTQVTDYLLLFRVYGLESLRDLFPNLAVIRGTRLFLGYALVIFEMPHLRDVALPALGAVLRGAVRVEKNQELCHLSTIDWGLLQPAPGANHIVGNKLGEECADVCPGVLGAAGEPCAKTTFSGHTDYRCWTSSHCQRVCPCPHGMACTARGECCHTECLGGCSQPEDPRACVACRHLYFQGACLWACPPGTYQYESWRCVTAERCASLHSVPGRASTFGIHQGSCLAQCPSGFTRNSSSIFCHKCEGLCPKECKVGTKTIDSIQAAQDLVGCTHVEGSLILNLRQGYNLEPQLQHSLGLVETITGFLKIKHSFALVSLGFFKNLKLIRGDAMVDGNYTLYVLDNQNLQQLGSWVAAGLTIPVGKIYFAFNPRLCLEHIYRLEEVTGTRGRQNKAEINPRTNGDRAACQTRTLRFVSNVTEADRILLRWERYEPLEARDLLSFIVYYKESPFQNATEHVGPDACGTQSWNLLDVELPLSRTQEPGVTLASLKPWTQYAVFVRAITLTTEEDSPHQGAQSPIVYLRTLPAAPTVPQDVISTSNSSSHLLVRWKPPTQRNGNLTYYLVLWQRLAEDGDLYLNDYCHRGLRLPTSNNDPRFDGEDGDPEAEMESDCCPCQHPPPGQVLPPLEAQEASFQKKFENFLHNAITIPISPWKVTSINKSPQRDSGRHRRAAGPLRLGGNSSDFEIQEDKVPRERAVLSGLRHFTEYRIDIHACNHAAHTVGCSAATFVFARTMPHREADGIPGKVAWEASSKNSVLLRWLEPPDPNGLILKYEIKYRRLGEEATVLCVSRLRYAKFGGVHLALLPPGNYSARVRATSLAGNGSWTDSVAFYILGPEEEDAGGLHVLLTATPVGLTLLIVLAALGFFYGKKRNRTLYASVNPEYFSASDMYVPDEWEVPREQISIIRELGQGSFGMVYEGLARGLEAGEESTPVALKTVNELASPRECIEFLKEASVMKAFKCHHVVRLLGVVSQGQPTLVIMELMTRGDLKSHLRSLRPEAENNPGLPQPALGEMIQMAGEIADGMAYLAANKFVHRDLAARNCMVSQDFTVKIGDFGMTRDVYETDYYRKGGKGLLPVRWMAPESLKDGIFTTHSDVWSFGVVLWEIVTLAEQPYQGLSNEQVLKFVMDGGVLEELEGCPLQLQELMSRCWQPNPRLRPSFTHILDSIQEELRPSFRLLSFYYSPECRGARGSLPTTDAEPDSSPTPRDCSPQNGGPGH
UniProt Q9Y616: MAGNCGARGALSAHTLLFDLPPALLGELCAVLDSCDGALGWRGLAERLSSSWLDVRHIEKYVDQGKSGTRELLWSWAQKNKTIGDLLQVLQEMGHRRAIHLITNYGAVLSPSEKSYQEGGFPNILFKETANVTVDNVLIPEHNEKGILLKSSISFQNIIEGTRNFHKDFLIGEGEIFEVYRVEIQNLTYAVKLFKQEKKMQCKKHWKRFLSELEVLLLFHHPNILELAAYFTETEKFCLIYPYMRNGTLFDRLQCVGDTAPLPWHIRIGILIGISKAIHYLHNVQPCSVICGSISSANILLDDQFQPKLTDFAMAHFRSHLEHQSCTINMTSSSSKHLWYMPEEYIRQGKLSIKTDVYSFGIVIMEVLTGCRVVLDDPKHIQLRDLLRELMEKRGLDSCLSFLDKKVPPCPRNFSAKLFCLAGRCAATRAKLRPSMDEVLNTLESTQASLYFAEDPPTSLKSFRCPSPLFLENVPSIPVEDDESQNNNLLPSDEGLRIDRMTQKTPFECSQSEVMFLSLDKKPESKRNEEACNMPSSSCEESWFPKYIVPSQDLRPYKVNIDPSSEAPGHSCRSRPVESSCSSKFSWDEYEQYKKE
UniProt P23458: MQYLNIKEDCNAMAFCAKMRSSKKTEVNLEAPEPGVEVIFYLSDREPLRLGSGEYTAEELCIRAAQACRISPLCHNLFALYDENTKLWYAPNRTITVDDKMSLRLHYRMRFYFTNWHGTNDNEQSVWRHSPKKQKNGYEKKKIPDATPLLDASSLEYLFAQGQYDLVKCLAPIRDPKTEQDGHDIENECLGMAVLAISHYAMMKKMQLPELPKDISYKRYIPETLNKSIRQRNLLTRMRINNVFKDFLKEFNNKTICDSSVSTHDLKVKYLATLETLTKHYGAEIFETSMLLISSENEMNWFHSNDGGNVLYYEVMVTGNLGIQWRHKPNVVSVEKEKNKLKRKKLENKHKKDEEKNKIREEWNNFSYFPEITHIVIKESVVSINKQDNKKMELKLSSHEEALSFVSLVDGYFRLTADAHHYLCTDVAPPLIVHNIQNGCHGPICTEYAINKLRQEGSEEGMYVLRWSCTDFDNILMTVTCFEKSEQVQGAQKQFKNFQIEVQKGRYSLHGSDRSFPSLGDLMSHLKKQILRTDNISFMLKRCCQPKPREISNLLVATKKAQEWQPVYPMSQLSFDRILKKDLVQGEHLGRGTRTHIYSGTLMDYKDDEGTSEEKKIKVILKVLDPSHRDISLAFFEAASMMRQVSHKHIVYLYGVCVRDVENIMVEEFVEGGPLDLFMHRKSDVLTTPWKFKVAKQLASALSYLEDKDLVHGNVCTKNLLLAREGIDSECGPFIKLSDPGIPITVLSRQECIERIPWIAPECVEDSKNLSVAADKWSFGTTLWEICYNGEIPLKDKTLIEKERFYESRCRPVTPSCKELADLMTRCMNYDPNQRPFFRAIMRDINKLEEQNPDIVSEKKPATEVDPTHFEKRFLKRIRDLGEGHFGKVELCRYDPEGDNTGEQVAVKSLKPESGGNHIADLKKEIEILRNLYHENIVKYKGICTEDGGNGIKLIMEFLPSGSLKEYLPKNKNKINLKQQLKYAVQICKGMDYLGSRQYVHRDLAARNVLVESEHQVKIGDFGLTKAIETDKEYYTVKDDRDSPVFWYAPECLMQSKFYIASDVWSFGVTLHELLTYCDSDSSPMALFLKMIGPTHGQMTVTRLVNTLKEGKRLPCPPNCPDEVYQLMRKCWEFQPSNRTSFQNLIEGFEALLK
UniProt P53671: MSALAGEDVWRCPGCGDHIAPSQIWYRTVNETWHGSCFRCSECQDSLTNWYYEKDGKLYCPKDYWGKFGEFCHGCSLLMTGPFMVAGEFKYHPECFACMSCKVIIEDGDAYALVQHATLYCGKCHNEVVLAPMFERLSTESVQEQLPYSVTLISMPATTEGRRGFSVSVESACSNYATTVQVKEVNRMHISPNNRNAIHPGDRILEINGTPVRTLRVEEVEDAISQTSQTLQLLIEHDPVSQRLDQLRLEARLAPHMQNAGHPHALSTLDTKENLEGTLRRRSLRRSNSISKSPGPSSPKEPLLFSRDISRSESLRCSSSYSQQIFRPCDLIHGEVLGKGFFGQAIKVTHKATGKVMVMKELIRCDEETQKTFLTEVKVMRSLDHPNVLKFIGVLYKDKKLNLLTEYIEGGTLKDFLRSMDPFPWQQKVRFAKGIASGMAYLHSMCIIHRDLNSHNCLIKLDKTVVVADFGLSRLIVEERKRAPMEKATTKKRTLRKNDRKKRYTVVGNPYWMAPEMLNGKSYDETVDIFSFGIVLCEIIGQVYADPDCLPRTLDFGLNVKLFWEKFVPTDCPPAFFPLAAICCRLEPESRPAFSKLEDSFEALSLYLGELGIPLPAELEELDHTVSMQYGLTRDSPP

Columns and labels:
Test in all cases: number of time points (of 5) at which kinase-Nluc abundance scored as decreased, DMSO-normalised (count); higher = more persistent destabilization
Settings in all cases: K562; 2-18 h
EGFR_L861Q = EGFR_L861Q (UniProt P00533)
EGFR_T790M = EGFR_T790M (UniProt P00533)
EPHA2 = EPHA2 (UniProt P29317)
ERBB3 = ERBB3 (UniProt P21860)
[1] = molecular target: ERBB4_R711C (clone: ERBB4_mut) (UniProt Q15303)
ERN1 = ERN1 (UniProt O75460)
FGFR1 = FGFR1 (UniProt P11362)
FGFR2 = FGFR2 (UniProt P21802)
FGFR3 = FGFR3 (UniProt P22607)
FGR = FGR (UniProt P09769)
FLT3 = FLT3 (UniProt P36888)
FYN = FYN (UniProt P06241)
GSK3A = GSK3A (UniProt P49840)
HER2 = HER2 (UniProt P04626)
INSRR = INSRR (UniProt P14616)
IRAK3 = IRAK3 (UniProt Q9Y616)
JAK1 = JAK1 (UniProt P23458)
LCK = LCK (UniProt P06239)
LIMK1 = LIMK1 (UniProt P53667)
LIMK2 = LIMK2 (UniProt P53671)

Row | Structure (SMILES) | number of time points (EGFR_L861Q) | number of time points (EGFR_T790M) | number of time points (EPHA2) | number of time points (ERBB3) | number of time points [1] | number of time points (ERN1) | number of time points (FGFR1) | number of time points (FGFR2) | number of time points (FGFR3) | number of time points (FGR) | number of time points (FLT3) | number of time points (FYN) | number of time points (GSK3A) | number of time points (HER2) | number of time points (INSRR) | number of time points (IRAK3) | number of time points (JAK1) | number of time points (LCK) | number of time points (LIMK1) | number of time points (LIMK2)
1 | Cc1ccc(NC(=O)Nc2cc(C(F)(F)F)ccc2F)cc1Nc1ccc2c(c1)NC(=O)/C2=C\c1ccc[nH]1 (2.5 µM) | 0 | 0 | 0 | 0 | 0 | 0 | 1 | 0 | 0 | 0 | 0 | 0 | 0 | 0 | 0 | 0 | 0 | 0 | 0 | 0
2 | CC(C)=CCC/C(C)=C/CC/C(C)=C/C=C/C(C)=C/C(=O)O [Peretinoin] (10 µM) | 0 | 0 | 0 | 0 | 0 | 0 | 0 | 0 | 0 | 0 | 0 | 0 | 0 | 0 | 0 | 0 | 0 | 0 | 0 | 0
3 | NCC1CCC(CNc2nc(NCc3ccccc3OC(F)(F)F)ncc2[N+](=O)[O-])CC1 (stereo not given) [PKC-theta inhibitor] (10 µM) | 4 | 2 | 5 | 5 | 5 | 4 | 5 | 4 | 4 | 0 | 3 | 0 | 0 | 3 | 4 | 1 | 2 | 0 | 5 | 4
4 | CC1CN(CC2CCN(Cc3ccccc3)CC2)C(=O)N(c2cccc(C(=N)N)c2)C1 (stereo not given) (10 µM) | 0 | 0 | 0 | 0 | 0 | 0 | 0 | 0 | 0 | 0 | 0 | 0 | 0 | 0 | 0 | 0 | 0 | 0 | 0 | 0
5 | Cc1ccc(C(=O)NC2CC2)cc1-n1ncc(C(=O)c2cccc(C#N)c2)c1N [Acumapimod] (10 µM) | 2 | 0 | 0 | 2 | 3 | 0 | 0 | 2 | 0 | 0 | 0 | 0 | 0 | 0 | 2 | 0 | 0 | 0 | 0 | 0
6 | O=C(c1cccc(Cl)c1F)N1CCN(Cc2cccc(Nc3nccs3)n2)CC1 (2.5 µM) | 0 | 0 | 0 | 0 | 1 | 0 | 0 | 1 | 0 | 0 | 0 | 0 | 0 | 0 | 0 | 0 | 0 | 0 | 0 | 0
7 | CC(Cc1ccc(O)c(O)c1)C(C)Cc1ccc(O)c(O)c1 (stereo not given) [Nordihydroguaiaretic acid] (2.5 µM) | 0 | 0 | 0 | 0 | 0 | 0 | 0 | 0 | 0 | 0 | 0 | 0 | 0 | 0 | 0 | 0 | 0 | 0 | 0 | 0
8 | Nc1ncc(C(=O)NC2CN(C(=O)C3CC3)C2)c2ccc(-c3cccc(F)c3)nc12 (2 µM) | 0 | 0 | 0 | 0 | 0 | 0 | 0 | 0 | 0 | 0 | 0 | 0 | 0 | 0 | 0 | 0 | 0 | 0 | 0 | 0
9 | O=C1NC(=O)/C(=C\c2c[nH]c(=O)c(-c3ccc(N4CCNCC4)nc3)c2)S1 [Protein kinase inhibitors 1 hydrochloride] (10 µM) | 0 | 0 | 0 | 0 | 0 | 0 | 0 | 0 | 0 | 0 | 0 | 0 | 0 | 0 | 0 | 0 | 0 | 0 | 0 | 0
10 | O=C1Nc2ccc(I)cc2/C1=C/c1cc(Br)c(O)c(Br)c1 (10 µM) | 0 | 0 | 2 | 0 | 0 | 0 | 0 | 0 | 0 | 0 | 0 | 0 | 1 | 2 | 1 | 0 | 0 | 0 | 0 | 1
11 | CC(O)(C#Cc1ccc2c(c1)N(c1nc(N)ncc1Cl)CC2)c1nccs1 (stereo not given) (2.5 µM) | 0 | 0 | 0 | 0 | 0 | 0 | 0 | 0 | 0 | 0 | 0 | 0 | 0 | 0 | 0 | 0 | 0 | 0 | 0 | 0
12 | COc1cc2ncnc(Nc3cccc(I)c3)c2cc1OC (2.5 µM) | 0 | 0 | 0 | 0 | 0 | 0 | 0 | 0 | 0 | 0 | 0 | 0 | 0 | 0 | 0 | 0 | 0 | 0 | 0 | 0
13 | O=C(Nc1cccc(-c2nc(-c3ccc(NC(=O)c4cccnc4)cc3Cl)no2)c1)Nc1ccc(NC(=O)C2CC2)c(C(F)(F)F)c1 (2.5 µM) | 0 | 0 | 0 | 0 | 0 | 0 | 0 | 0 | 0 | 0 | 0 | 0 | 0 | 0 | 0 | 0 | 0 | 0 | 0 | 0
14 | COc1ccc(Br)cc1NC(=O)Nc1cccc2c1ccn2Cc1ccnc(N)c1 (2.5 µM) | 2 | 0 | 0 | 0 | 3 | 0 | 0 | 1 | 0 | 0 | 0 | 0 | 0 | 0 | 0 | 0 | 0 | 0 | 0 | 0
15 | O=c1c2c([nH]n1-c1nc3ccccc3s1)CCCC2 (10 µM) | 0 | 0 | 0 | 0 | 0 | 0 | 0 | 0 | 0 | 0 | 0 | 0 | 0 | 0 | 0 | 0 | 0 | 0 | 0 | 0
16 | Cc1nn(C)cc1-c1nc2c(N3CCN(Cc4ccc(Cl)cc4)CC3)c(Cl)cnc2[nH]1 (10 µM) | 0 | 0 | 0 | 0 | 0 | 0 | 0 | 0 | 0 | 0 | 0 | 0 | 0 | 0 | 0 | 0 | 0 | 0 | 0 | 0
17 | O=C1OC(/C=C/c2ccccc2)=NC/1=C\c1cccnc1 (10 µM) | 0 | 0 | 0 | 0 | 0 | 0 | 0 | 0 | 0 | 0 | 0 | 0 | 0 | 0 | 0 | 0 | 0 | 0 | 0 | 0
18 | Cc1ccc(C)c(OCCn2cc(C(=O)O)c3ccccc32)c1 (10 µM) | 0 | 0 | 0 | 0 | 0 | 0 | 0 | 0 | 0 | 0 | 0 | 0 | 0 | 0 | 0 | 0 | 0 | 0 | 0 | 0
19 | COc1cc2ncnc(Oc3ccc(CC(=O)Nc4cnn(C(C)C)c4)cc3)c2cc1OC (10 µM) | 0 | 0 | 0 | 0 | 0 | 0 | 0 | 0 | 0 | 0 | 0 | 0 | 0 | 0 | 0 | 0 | 0 | 0 | 2 | 2
20 | COc1cc2c(cc1Nc1ncc(C(N)=O)c(Nc3c(F)cccc3C(F)(F)F)n1)CN(C)CC2 (2.5 µM) | 0 | 0 | 0 | 0 | 0 | 0 | 0 | 0 | 0 | 0 | 0 | 0 | 0 | 0 | 0 | 0 | 0 | 0 | 0 | 0
21 | Cn1c2cc([S+](C)[O-])sc2c2cnn(Cc3cccc(N)c3)c(=O)c21 (stereo not given) (2.5 µM) | 0 | 0 | 0 | 0 | 0 | 0 | 0 | 0 | 0 | 0 | 0 | 0 | 0 | 0 | 0 | 0 | 0 | 0 | 0 | 0
22 | CCc1c[nH]c2ncnc(N3CC[C@](N)(CNC(=O)c4ccc(F)cc4F)C3)c12 (10 µM) | 0 | 0 | 0 | 0 | 0 | 0 | 0 | 0 | 0 | 0 | 0 | 0 | 0 | 0 | 0 | 0 | 0 | 0 | 0 | 0
23 | Clc1ccc(C(c2ccc(Cl)cc2)[n+]2ccn(CC(OCc3ccc(Cl)cc3Cl)c3ccc(Cl)cc3Cl)c2)cc1 (stereo not given) [Calmidazolium chloride] (2.5 µM) | 0 | 0 | 0 | 1 | 0 | 0 | 0 | 0 | 0 | 0 | 0 | 0 | 0 | 0 | 2 | 0 | 0 | 0 | 3 | 2

3 entries out of the list, sorted by SMILES length, smallest number first:
Row | Structure (SMILES) | number of time points (EGFR_L861Q) | number of time points (EGFR_T790M) | number of time points (EPHA2) | number of time points (ERBB3) | number of time points [1] | number of time points (ERN1) | number of time points (FGFR1) | number of time points (FGFR2) | number of time points (FGFR3) | number of time points (FGR) | number of time points (FLT3) | number of time points (FYN) | number of time points (GSK3A) | number of time points (HER2) | number of time points (INSRR) | number of time points (IRAK3) | number of time points (JAK1) | number of time points (LCK) | number of time points (LIMK1) | number of time points (LIMK2)
18 | Cc1ccc(C)c(OCCn2cc(C(=O)O)c3ccccc32)c1 (10 µM) | 0 | 0 | 0 | 0 | 0 | 0 | 0 | 0 | 0 | 0 | 0 | 0 | 0 | 0 | 0 | 0 | 0 | 0 | 0 | 0
10 | O=C1Nc2ccc(I)cc2/C1=C/c1cc(Br)c(O)c(Br)c1 (10 µM) | 0 | 0 | 2 | 0 | 0 | 0 | 0 | 0 | 0 | 0 | 0 | 0 | 1 | 2 | 1 | 0 | 0 | 0 | 0 | 1
3 | NCC1CCC(CNc2nc(NCc3ccccc3OC(F)(F)F)ncc2[N+](=O)[O-])CC1 (stereo not given) [PKC-theta inhibitor] (10 µM) | 4 | 2 | 5 | 5 | 5 | 4 | 5 | 4 | 4 | 0 | 3 | 0 | 0 | 3 | 4 | 1 | 2 | 0 | 5 | 4
